Test results: the supplement of paper PMC12873370
Several values for one entry are separate records, joined by “and”; a condition that tells them apart may be missing. Equal values may be shown once. Some of the results follow. Most values come without repeats; read them as rough.

Experiments:
[1] = tested on: MEPP (mouse ovarian epithelium Trp53/Pten KO); assay: cell viability relative to untreated (fraction); higher = less growth inhibition; conditions: 5 µM; 3 days
[2] = tested on: PREPP (mouse prostate epithelium Trp53/Pten KO); assay: as above; conditions: 5 µM; 3 days

Row | Structure (SMILES) | cell viability [1] | cell viability [2]
1 | CC(=O)NC1C(O)OC(CO)C(O)C1O (centres undefined) | 0.892 | 1.08
2 | CCCCCCCCCC(C)=O | 1.05 | 1.05
3 | CC(C)Oc1ccc2c(=O)c(-c3ccccc3)coc2c1 | 0.781 | 0.888
4 | Cc1c[nH]c(=O)[nH]c1=O | 1.17 | 0.957
5 | O=c1[nH]cc(F)c(=O)[nH]1 | 0.751 | 0.608
6 | O=c1cc(-c2ccccc2)oc2cc(O)cc(O)c12 | 1.81 | 0.85
7 | COC1=CC(=O)C[C@@H](C)[C@]12Oc1c(Cl)c(OC)cc(OC)c1C2=O | 0.835 | 0.89
8 | CCCCOc1cc(C(=O)NCCN(CC)CC)c2ccccc2n1 | 1.27 | 0.838
9 | N[C@@H](Cc1ccc(O)c(O)c1)C(=O)O | 1.1 | 0.931
10 | Cc1cc(-n2c(=O)[nH]c(=O)n(C)c2=O)ccc1Oc1ccc(SC(F)(F)F)cc1 | 0.872 | 0.899
11 | CC(=O)OCC[N+](C)(C)C | 0.81 and 1.2 | 0.973 and 0.894
12 | CSCC[C@H](N)C(=O)O | 0.89 and 0.985 | 0.956 and 1.03
13 | CCCCCCCCCCCCCCCCCC(=O)OC | 1.01 | 0.729
14 | O=C1c2c(O)cccc2C([C@@H]2O[C@H](CO)[C@@H](O)[C@H](O)[C@H]2O)c2cc(CO)cc(O)c21 (some centres undefined) | 1.01 | 1.05
15 | CO[C@@H]1[C@H](OC(=O)/C=C/C=C/C=C/C=C/C(=O)O)CC[C@]2(CO2)[C@H]1[C@@]1(C)O[C@@H]1CC=C(C)C | 0.802 | 0.802
16 | O=C(O)[C@@H](O)Cc1ccccc1 | 0.944 | 0.908
17 | O=C(O)c1ccc(Cl)cc1O | 0.991 | 0.973
18 | C[C@@H](CCC(=O)O)CC(=O)O | 0.974 | 0.94
19 | C[C@@H]1O[C@@H](Oc2c(-c3ccc(O)c(O)c3)oc3cc(O)cc(O)c3c2=O)[C@H](O)[C@H](O)[C@H]1O | 0.85 | 1.65

Row | Structure (SMILES) | cell viability [1] | cell viability [2]
20 | Cc1ncc(CO)c(C=O)c1O | 0.763 | 0.992
21 | CC(C)=CCC[C@](C)(O[C@@H]1O[C@H](CO[C@@H]2OC[C@H](O)[C@H](O)[C@H]2O)[C@@H](O)[C@H](O)[C@H]1O)[C@H]1CC[C@]2(C)[C@@H]1[C@H](O)C[C@@H]1[C@@]3(C)CC[C@H](O[C@@H]4O[C@H](CO)[C@@H](O)[C@H](O)[C@H]4O[C@@H]4O[C@H](CO)[C@@H](O)[C@H](O)[C@H]4O)C(C)(C)[C@@H]3CC[C@]12C | 0.975 | 0.99
22 | COc1ccc(-c2coc3cc(O)cc(O)c3c2=O)cc1 | 1.25 | 0.953
23 | COc1cc(C=O)cc(OC)c1O | 0.952 | 1.02
24 | Cc1c(C)c2c(c(C)c1O)CCC(C)(CCCC(C)CCCC(C)CCCC(C)C)O2 (centres undefined) | 0.884 | 0.931
25 | CC(C)CC(O)C(=O)O (centres undefined) | 0.92 | 0.991
26 | CCC(C)n1ncn(-c2ccc(N3CCN(c4ccc(OCC5COC(Cn6cncn6)(c6ccc(Cl)cc6Cl)O5)cc4)CC3)cc2)c1=O (centres undefined) | 0.684 | 0.593
27 | CO[C@H]1[C@H](O)[C@@H](O)[C@@H](O)[C@H](O)[C@@H]1O | 0.979 | 0.923
28 | Cc1ccnc(NS(=O)(=O)c2ccc(N)cc2)n1 | 0.835 | 0.896
29 | O=c1cc(-c2ccc(O)c(O)c2)oc2cc(O)cc(O)c12 | 0.941 | 1.31
30 | Cc1cc(O)c2c(c1)C(=O)c1cccc(O)c1C2=O | 0.918 | 1.27
31 | O=C(O)CC(=O)CC(=O)O | 1.58 | 0.928
32 | C=C1CC[C@H]2C(=C)CC[C@H]3C(=C)C(=O)O[C@@H]3[C@@H]12 | 1.14 | 0.913
33 | O=C(O)c1cccc(Oc2ccccc2)c1 | 0.985 | 1.04
34 | O=C1C=C2C=C[C@@H](O)[C@H](O)[C@H]2O1 | 1.07 | 0.996
35 | C/C(=C\C(=O)OCCCCCCCCC(=O)O)C[C@@H]1OC[C@H](C[C@@H]2O[C@H]2[C@@H](C)[C@H](C)O)[C@@H](O)[C@H]1O | 0.801 | 0.929
36 | CCc1c(Cl)c(O)c(Cl)c(O)c1C(=O)O[C@H]1[C@H](O)[C@H](OC)[C@H](OC/C2=C\C=C\C[C@H](O)/C(C)=C/[C@H](CC)[C@@H](O[C@@H]3OC(C)(C)[C@@H](OC(=O)C(C)C)[C@H](O)[C@@H]3O)/C(C)=C/C(C)=C/C[C@@H]([C@@H](C)O)OC2=O)O[C@@H]1C | 1.11 | 0.878
37 | C[C@H]1O[C@H](O[C@H]2[C@H](O)[C@@H](O)[C@@H](O[C@H]3[C@H](O)[C@@H](O)C(O)O[C@@H]3CO)O[C@@H]2CO)[C@H](O)[C@@H](O)[C@@H]1N[C@H]1C=C(CO)[C@@H](O)[C@H](O)[C@H]1O (some centres undefined) | 1.09 | 0.856

Gathered by group: the entries above with fluorine.
Row | Structure (SMILES) | cell viability [1] | cell viability [2]
5 | O=c1[nH]cc(F)c(=O)[nH]1 | 0.751 | 0.608
10 | Cc1cc(-n2c(=O)[nH]c(=O)n(C)c2=O)ccc1Oc1ccc(SC(F)(F)F)cc1 | 0.872 | 0.899
